{"source": "paper PMC7969032", "about": "“Tandem RNA binding sites induce self-association of the stress granule marker protein TIA-1”", "system": "T1, TIA-1 RRM23", "T1 sequence (looked up, limits assumed)": "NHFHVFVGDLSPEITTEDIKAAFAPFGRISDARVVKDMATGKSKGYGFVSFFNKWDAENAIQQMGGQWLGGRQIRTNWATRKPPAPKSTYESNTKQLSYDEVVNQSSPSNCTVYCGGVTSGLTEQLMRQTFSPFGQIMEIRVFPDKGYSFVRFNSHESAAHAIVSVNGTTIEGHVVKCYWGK", "assay": "fluorescence anisotropy", "conditions": "no arginine, 50 mM NaCl, KD not in text; FA: 1 nM Fl-TC1; RRM23 in 10 mM HEPES pH 7.2, 50 mM NaCl, 1 mM DTT (legend: 20 mM HEPES); full-length TIA-1 in 20 mM sodium phosphate, 60 mM KCl, 0.5 M arginine-HCl; recombinant protein; label: 5'-fluorescein; single-stranded DNA", "note": "For at least one entry, the source does not settle the construct or the ends of the probe. At least one verdict rests on a figure or table, not on a statement of the authors. Protein sequences can lack the tags named with them.", "data": [{"sequence": "TTTTTACTCC [TC1 (5'-fluorescein)]", "values": [{"measurement": "binding result", "result": "binds"}]}]}
